In one assay the target is Halo-TMEM55B (UniProt Q86T03). Kind of assay: affinity purification with mass spectrometry; Halo-TMEM55B WT or R151E on HaloLink resin from transfected cells with Rab8A Q67L and LRRK2 Y1699C (or Y1699C D2017A); DIA-MS.
Another assay concerns the target Halo-TMEM55B R151E (UniProt Q86T03). The description is as above.

Chains of the proteins cited; added tags and fusions are not shown. Lines headed by an entry give the natural chain unless they say otherwise; changes in a name come on top. A line that says so, or that is headed by a name, gives the form on record, which may keep a tag or linker.
Halo-TMEM55B (Q86T03, form named): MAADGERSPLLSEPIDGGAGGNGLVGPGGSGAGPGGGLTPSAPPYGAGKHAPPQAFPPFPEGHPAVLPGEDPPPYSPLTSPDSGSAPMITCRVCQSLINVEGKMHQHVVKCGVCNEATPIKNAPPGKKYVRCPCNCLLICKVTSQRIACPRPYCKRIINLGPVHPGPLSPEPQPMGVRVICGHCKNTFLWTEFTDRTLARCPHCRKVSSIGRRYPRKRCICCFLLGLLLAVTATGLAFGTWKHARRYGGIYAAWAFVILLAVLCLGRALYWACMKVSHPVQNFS
Halo-TMEM55B R151E (Q86T03, form named): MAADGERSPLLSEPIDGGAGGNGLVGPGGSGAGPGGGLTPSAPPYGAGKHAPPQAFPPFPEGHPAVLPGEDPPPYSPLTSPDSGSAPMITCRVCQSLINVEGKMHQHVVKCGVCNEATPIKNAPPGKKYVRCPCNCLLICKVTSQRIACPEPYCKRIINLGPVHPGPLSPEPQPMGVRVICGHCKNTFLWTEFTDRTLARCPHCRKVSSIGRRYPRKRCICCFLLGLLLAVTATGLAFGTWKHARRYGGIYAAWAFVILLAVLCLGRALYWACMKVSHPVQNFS
UniProt Q9P2E3: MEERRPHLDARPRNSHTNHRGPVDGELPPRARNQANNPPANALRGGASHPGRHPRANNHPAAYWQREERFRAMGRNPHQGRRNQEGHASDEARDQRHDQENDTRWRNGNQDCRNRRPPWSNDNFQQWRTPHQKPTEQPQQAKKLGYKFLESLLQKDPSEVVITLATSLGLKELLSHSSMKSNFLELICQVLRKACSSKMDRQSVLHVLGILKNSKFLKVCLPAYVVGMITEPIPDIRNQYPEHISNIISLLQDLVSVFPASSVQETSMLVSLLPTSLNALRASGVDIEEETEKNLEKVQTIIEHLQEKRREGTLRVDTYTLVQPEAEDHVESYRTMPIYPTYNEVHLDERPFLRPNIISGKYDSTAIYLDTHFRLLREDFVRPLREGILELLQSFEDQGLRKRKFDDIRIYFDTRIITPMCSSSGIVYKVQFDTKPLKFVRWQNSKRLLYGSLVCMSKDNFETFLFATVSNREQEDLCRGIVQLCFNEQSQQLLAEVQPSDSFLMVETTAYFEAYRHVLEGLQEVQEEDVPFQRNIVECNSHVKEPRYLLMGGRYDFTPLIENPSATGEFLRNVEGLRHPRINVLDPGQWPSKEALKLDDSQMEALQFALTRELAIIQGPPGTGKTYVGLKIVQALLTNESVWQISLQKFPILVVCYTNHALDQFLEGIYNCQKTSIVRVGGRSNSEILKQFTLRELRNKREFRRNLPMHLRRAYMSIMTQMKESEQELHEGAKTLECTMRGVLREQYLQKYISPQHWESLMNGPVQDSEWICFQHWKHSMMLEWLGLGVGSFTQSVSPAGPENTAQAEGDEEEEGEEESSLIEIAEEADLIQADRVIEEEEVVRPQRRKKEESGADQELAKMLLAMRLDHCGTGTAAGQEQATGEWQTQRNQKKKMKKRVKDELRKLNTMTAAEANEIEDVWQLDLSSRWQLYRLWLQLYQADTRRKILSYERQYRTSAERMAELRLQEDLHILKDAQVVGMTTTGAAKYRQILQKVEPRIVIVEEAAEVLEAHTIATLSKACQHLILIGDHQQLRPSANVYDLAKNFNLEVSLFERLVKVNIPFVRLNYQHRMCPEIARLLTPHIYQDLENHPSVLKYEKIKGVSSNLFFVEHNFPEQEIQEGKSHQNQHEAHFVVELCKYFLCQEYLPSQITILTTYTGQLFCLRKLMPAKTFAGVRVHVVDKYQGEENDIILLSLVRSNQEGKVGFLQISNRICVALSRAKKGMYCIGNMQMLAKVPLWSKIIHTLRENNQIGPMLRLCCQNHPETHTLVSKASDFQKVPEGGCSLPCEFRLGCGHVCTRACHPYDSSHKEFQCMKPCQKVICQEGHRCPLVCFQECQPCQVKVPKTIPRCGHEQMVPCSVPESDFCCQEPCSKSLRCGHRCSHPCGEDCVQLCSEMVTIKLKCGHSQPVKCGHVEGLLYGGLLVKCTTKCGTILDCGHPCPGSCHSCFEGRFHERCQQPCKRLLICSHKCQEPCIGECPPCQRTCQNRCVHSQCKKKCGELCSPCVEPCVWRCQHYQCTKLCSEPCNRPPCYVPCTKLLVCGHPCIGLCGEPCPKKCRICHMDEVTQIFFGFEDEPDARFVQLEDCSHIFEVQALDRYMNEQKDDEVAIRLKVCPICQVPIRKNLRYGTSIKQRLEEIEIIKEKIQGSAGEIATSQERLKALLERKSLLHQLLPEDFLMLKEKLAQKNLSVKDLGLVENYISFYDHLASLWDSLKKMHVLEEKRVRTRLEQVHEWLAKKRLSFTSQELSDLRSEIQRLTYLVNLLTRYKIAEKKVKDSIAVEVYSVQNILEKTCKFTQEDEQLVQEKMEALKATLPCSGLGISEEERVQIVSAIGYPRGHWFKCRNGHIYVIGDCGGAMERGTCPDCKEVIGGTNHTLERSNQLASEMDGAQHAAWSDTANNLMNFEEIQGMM
UniProt Q9H3P7: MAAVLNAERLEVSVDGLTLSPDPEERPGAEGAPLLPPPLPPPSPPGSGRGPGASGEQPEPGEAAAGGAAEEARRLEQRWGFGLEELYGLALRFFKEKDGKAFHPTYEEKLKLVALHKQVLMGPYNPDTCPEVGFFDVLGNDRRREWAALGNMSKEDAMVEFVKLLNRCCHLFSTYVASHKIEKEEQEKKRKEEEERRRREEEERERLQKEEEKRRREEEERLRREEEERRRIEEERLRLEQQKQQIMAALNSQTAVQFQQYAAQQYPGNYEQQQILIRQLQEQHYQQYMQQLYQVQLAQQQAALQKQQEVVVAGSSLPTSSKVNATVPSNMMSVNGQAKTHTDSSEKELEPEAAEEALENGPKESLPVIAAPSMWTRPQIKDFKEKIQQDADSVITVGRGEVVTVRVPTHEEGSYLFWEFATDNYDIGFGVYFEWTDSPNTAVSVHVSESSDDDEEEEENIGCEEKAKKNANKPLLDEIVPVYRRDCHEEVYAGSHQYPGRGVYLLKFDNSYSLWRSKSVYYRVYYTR
UniProt Q01968: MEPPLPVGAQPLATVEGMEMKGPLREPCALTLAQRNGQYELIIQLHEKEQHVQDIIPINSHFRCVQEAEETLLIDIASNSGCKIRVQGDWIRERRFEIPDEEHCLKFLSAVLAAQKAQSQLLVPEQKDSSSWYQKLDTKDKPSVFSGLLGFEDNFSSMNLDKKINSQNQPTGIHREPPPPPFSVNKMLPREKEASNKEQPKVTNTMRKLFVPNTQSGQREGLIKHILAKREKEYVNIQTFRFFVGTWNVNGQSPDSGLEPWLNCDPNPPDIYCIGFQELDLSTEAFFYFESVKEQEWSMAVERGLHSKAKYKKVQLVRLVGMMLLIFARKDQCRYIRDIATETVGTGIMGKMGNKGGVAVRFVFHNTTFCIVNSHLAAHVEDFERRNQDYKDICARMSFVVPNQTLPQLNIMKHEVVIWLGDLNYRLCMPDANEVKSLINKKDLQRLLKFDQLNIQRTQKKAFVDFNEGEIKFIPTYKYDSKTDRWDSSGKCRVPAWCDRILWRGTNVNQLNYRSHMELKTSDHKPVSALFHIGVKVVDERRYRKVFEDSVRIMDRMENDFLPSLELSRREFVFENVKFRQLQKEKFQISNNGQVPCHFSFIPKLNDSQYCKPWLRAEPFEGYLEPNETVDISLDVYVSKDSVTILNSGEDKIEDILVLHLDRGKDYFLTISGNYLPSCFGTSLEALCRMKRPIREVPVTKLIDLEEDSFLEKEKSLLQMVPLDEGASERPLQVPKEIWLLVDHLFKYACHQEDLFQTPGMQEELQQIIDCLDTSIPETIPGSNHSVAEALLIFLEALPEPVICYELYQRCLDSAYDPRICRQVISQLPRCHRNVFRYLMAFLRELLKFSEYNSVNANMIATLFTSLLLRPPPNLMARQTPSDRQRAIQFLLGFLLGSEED

The text below walks through data of paper doi:10.1101/2025.08.19.670962, “Structural basis for binding of RILPL1 to TMEM55B reveals a lysosomal platform for adaptor assembly through a conserved TBM motif” (bioRxiv, 2025).

No constants are given. Whether binding was seen depends on the method and setting. In cells and extracts the contact can be indirect. Here binding means that the protein was enriched with, or labelled near, the bait; the list need not be complete. For some of these results: No binding means not detected with the bait.

Regarding RNF213 (from UniProt Q63HN8 1-5207), the binding result was “binds” with Halo-TMEM55B and “no binding” with Halo-TMEM55B R151E. Consider ZNFX1 (from UniProt Q9P2E3 1-1918), for which the binding entry with Halo-TMEM55B was “binds”; with Halo-TMEM55B R151E it was “no binding”. On the same counts, the results for ACBD3 (from UniProt Q9H3P7 1-528) are “binds” and “no binding”. For the substance “OCRL (in HEK293 lysate) (from UniProt Q01968 1-901)”, the binding entry with Halo-TMEM55B was “binds”.
